Experimental data reported in PubChem BioAssay AID1688 (National Center for Advancing Translational Sciences (NCATS), 2009).
Among all 220,000 compounds or so, about 2,400 (1.1%) were called active. Inconclusive results, whose numbers are uncertain, are shown with a selection of clear calls. Calls follow the shape of the dose curve; as a rule, active = well fitted inhibition curve with a large enough effect; inconclusive = small, poorly fitted or top-dose-only effect, or effect the other way; inactive = no such curve, though single readings can be large or run the other way. Potencies of inconclusive entries are doubtful fits and often do not repeat.

test: qHTS Multiplex Assay to Identify Dual Action Probes in a Cell Model of Huntington: Aggregate Formation (GFP); conditions: PC12 HttQ103-GFP aggregates, Acumen cytometry, 40 h; activity change, negative = inhibition: at 46.1 µM (top of the series) unless noted; also: nearly all actives have a fitted effect of over 60% in size
Outline: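 PC12 cells stably carrying ecdysone-inducible HTT exon 1 Q103–GFP were induced with tebufenozide (100 nM final) and treated with library compounds in titration. GFP aggregates in lysates were counted by laser scanning cytometry.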
% is scaled to controls: 0 for no effect and ±100 for the full control effect; potency is read from the fitted curve at half-maximal effect.

Compound | Potency | activity change, negative = inhibition
C/C(=N/NC(=O)c1ccc2nc[nH]c2c1)c1cccs1 | inconclusive: 12.6 µM [activator, single point] | –
COc1ccc(C(=O)NC2=C(C#N)CCC2)cc1OC | inconclusive: 0.891 µM [inhibitor, single point] | –
CCC(Sc1nc2cc3c(cc2c(=O)n1Cc1ccco1)OCO3)C(=O)NCCOC (configuration not stated) | inactive | –
Cc1ccc(-n2[nH]c(C)c(C=Nc3ccc4[nH]c(=O)[nH]c4c3)c2=O)cc1 | inconclusive: 28.2 µM [inhibitor, single point] | –
O=C(CSc1nc2c(c(=O)[nH]1)CN(Cc1ccc(F)cc1)CC2)Nc1ccc(F)cc1 | inconclusive: 22.4 µM [inhibitor, single point] | –
COc1ccccc1N1CSC2=C(C#N)C(c3ccc(SC)cc3)CC(=O)N2C1 (configuration not stated) | inactive | –
COc1ccc(Oc2c(C=O)c3ccccc3n2C)cc1 | inconclusive: 35.5 µM [inhibitor, single point] | –
CC(=O)Nc1nc2nc(-c3ccccc3)cc(-c3ccccc3)n2n1 | inconclusive: 2.51 µM [activator, partial curve] | –
Cc1nc(NC(=O)C23CC4CC(CC(C4)C2)C3)sc1Cc1ccc2c(c1)OCO2 | inconclusive: 35.5 µM [inhibitor, single point] | –
COc1ccc(C(=O)CSc2nn3c(=O)c(C(C)(C)C)nnc3s2)cc1 | inconclusive: 1.26 µM [inhibitor, single point] | –
CCOc1cc(S(=O)(=O)n2cc(-c3ccc(F)cc3)c(N)n2)cc(OCC)c1OCC | inconclusive: 35.5 µM [inhibitor, partial curve] | –
COc1ccc(NC(=O)c2ccco2)cc1NC(=O)c1cccnc1 | active: 3.16 µM | –
CC12CCC(C(=O)N3CCCCC3)([C@H](Br)C1=O)C2(C)C (some centres not stated) | – | inactive: 4.48% [at 9.22 µM]
COc1ccccc1OS(=O)(=O)c1ccc(NC(C)=O)cc1 | inconclusive: 28.2 µM [inhibitor, single point] | –
CC1(C)Cc2c(c(N3CCOCC3)nc3sc(C#N)c(N)c23)CS1 | inconclusive: 11.2 µM [activator, partial curve] | –
Cc1cc(=O)oc2ccc(OCC(=O)N(Cc3ccc(F)cc3)Cc3ccco3)cc12 | inconclusive: 35.5 µM [inhibitor, single point] | –
Cc1ccc(N(NC(=O)C(O)(c2ccccc2)c2ccccc2)C(=O)CCl)cc1 | active: 5.01 µM | –
NS(=O)(=O)c1ccc(NC(=S)NCc2ccc3c(c2)OCO3)cc1 | inconclusive: 1.26 µM [inhibitor, single point] | –
O=C1Nc2ccc(S(=O)(=O)NCCC3=CCCCC3)c3cccc1c23 | inconclusive: 10 µM [inhibitor, single point] | –
CCN(CC)c1ccc2c(C)c(Cl)c(=O)oc2c1 | inconclusive: 5.62 µM [activator, single point] | –
O=C(NC(NNc1ccc([N+](=O)[O-])cc1)(C(F)(F)F)C(F)(F)F)c1ccccc1Cl | inconclusive: 35.5 µM [inhibitor, single point] | –
Clc1ccccc1CNc1ncnc2nc[nH]c12 | inconclusive: 15.8 µM [inhibitor, single point] | –
CCn1c(SCC(=O)NCCc2ccccc2)nnc1-c1cccs1 | inactive | –
COc1ccc(C(=O)C2CCCN(Cc3c(C)[nH]c4ccccc34)C2)c(OC)c1 (configuration not stated) | active: 35.5 µM | –

Arranged by formula weight (ascending): some entries from above.
Compound | Potency | activity change, negative = inhibition
Clc1ccccc1CNc1ncnc2nc[nH]c12 | inconclusive: 15.8 µM [inhibitor, single point] | –
CCN(CC)c1ccc2c(C)c(Cl)c(=O)oc2c1 | inconclusive: 5.62 µM [activator, single point] | –
COc1ccc(C(=O)NC2=C(C#N)CCC2)cc1OC | inconclusive: 0.891 µM [inhibitor, single point] | –
COc1ccc(Oc2c(C=O)c3ccccc3n2C)cc1 | inconclusive: 35.5 µM [inhibitor, single point] | –
COc1ccccc1OS(=O)(=O)c1ccc(NC(C)=O)cc1 | inconclusive: 28.2 µM [inhibitor, single point] | –
CC(=O)Nc1nc2nc(-c3ccccc3)cc(-c3ccccc3)n2n1 | inconclusive: 2.51 µM [activator, partial curve] | –
COc1ccc(NC(=O)c2ccco2)cc1NC(=O)c1cccnc1 | active: 3.16 µM | –
CC12CCC(C(=O)N3CCCCC3)([C@H](Br)C1=O)C2(C)C (some centres not stated) | – | inactive: 4.48% [at 9.22 µM]
Cc1ccc(-n2[nH]c(C)c(C=Nc3ccc4[nH]c(=O)[nH]c4c3)c2=O)cc1 | inconclusive: 28.2 µM [inhibitor, single point] | –
O=C1Nc2ccc(S(=O)(=O)NCCC3=CCCCC3)c3cccc1c23 | inconclusive: 10 µM [inhibitor, single point] | –
NS(=O)(=O)c1ccc(NC(=S)NCc2ccc3c(c2)OCO3)cc1 | inconclusive: 1.26 µM [inhibitor, single point] | –
CCn1c(SCC(=O)NCCc2ccccc2)nnc1-c1cccs1 | inactive | –
COc1ccc(C(=O)C2CCCN(Cc3c(C)[nH]c4ccccc34)C2)c(OC)c1 (configuration not stated) | active: 35.5 µM | –
Cc1ccc(N(NC(=O)C(O)(c2ccccc2)c2ccccc2)C(=O)CCl)cc1 | active: 5.01 µM | –
Cc1nc(NC(=O)C23CC4CC(CC(C4)C2)C3)sc1Cc1ccc2c(c1)OCO2 | inconclusive: 35.5 µM [inhibitor, single point] | –
Cc1cc(=O)oc2ccc(OCC(=O)N(Cc3ccc(F)cc3)Cc3ccco3)cc12 | inconclusive: 35.5 µM [inhibitor, single point] | –
COc1ccccc1N1CSC2=C(C#N)C(c3ccc(SC)cc3)CC(=O)N2C1 (configuration not stated) | inactive | –
O=C(CSc1nc2c(c(=O)[nH]1)CN(Cc1ccc(F)cc1)CC2)Nc1ccc(F)cc1 | inconclusive: 22.4 µM [inhibitor, single point] | –
CCC(Sc1nc2cc3c(cc2c(=O)n1Cc1ccco1)OCO3)C(=O)NCCOC (configuration not stated) | inactive | –
CCOc1cc(S(=O)(=O)n2cc(-c3ccc(F)cc3)c(N)n2)cc(OCC)c1OCC | inconclusive: 35.5 µM [inhibitor, partial curve] | –
O=C(NC(NNc1ccc([N+](=O)[O-])cc1)(C(F)(F)F)C(F)(F)F)c1ccccc1Cl | inconclusive: 35.5 µM [inhibitor, single point] | –

(further entries)

Compound | Potency | activity change, negative = inhibition
O=C(C1CCN(Cc2ccc(Cl)cc2)CC1)N1CCN(C(c2ccccc2)c2ccccc2)CC1 | inconclusive: 35.5 µM [inhibitor, single point] | –
CCCOc1ccc(C(=O)N2CCCc3ccccc32)cc1 | inactive | –
O=C(N/N=C/c1cc(Cl)ccc1O)C(=O)Nc1ccccc1OC(F)(F)C(F)F | inconclusive: 1.58 µM [inhibitor, full curve] | –
Cc1cc(C(=O)CSc2n[nH]c(N)n2)c(C)n1-c1ccc2c(c1)OCO2 | inconclusive: 3.98 µM [inhibitor, single point] | –
OC(CN1CCN(Cc2ccc3c(c2)OCO3)CC1)c1c[nH]c2ccccc12 (configuration not stated) | inconclusive: 15.8 µM [inhibitor, single point] | –
CCOCCCNC(=O)c1ccc2c(c1)OCO2 | inconclusive: 7.08 µM [inhibitor, partial curve] | –
Cc1ccc(-c2nc3ccc([N+](=O)[O-])cc3[nH]2)cc1 | active: 10 µM | –
CCOC(=O)N1CCC(NC(=O)c2cc(C(=O)Nc3cccc(C(F)(F)F)c3)ccc2CO)CC1 | inconclusive: 11.2 µM [inhibitor, single point] | –
CCOc1ccc(C2=C(C=C(C#N)C#N)C(c3ccccc3)c3ccccc3O2)cc1 (configuration not stated) | inconclusive: 35.5 µM [inhibitor, single point] | –
Cc1[nH]c2ccccc2c1C(=O)/C=C/c1ccccc1Cl | inconclusive: 35.5 µM [inhibitor, single point] | –
Cc1ccc(CNc2ncnc(N)c2[N+](=O)[O-])cc1 | active: 4.47 µM | –
CC(C)OC(=O)c1cc2c(ccn2C)n1CC(=O)N(Cc1ccccc1)c1ccccc1 | inconclusive: 15.8 µM [inhibitor, single point] | –
CC(N=C1NC(C)(C)Cc2ccccc21)C(=O)O (configuration not stated) | – | inactive: -8.01% [at 9.22 µM]
O=C(NC(NC(=S)Nc1ccccc1C(=O)O)C(Cl)(Cl)Cl)c1ccco1 (configuration not stated) | inactive | –
COC(=O)c1ccccc1NC1=C/C(=N\S(=O)(=O)c2cccs2)c2ccccc2C1=O | inconclusive: 3.55 µM [inhibitor, full curve] | –
NCCCNC(=O)c1cc2ccccc2[nH]1 | inactive | –
COC(=O)CN1C(=O)N/C(=C/c2cc(Cl)c(OC)c(OC)c2)C1=O | inactive | –
CCOC(=O)CSc1nc2ccc(NC(=O)CSc3nnnn3Cc3ccccc3)cc2s1 | inconclusive: 14.1 µM [inhibitor, single point] | –
CCOC(=O)N1CCN(S(=O)(=O)c2ccc3c(c2)oc(=O)n3C)CC1 | inactive | –
CC(C)NC(=S)Nc1ccc(Oc2ccccc2)cc1 | inconclusive: 35.5 µM [inhibitor, single point] | –
COc1ccccc1C(c1nnnn1C(C)(C)C)N1CCN(C(=O)c2ccco2)CC1 (configuration not stated) | inactive | –
C#CCOc1c(Cl)cc(/C=N/O)cc1OC | inconclusive: 10 µM [inhibitor, partial curve, poor fit] | –
Clc1ccc2nc(C3CCN(Cc4nnnn4C4CCCCC4)CC3)[nH]c2c1 | inconclusive: 31.6 µM [inhibitor, single point] | –
CCOC(=O)N1CCN(c2ncnc3c2[nH]c2ccc(F)cc23)CC1 | active: 7.08 µM | –

Compound | Potency | activity change, negative = inhibition
Cc1ccc(NC(=O)CSc2nc(NS(=O)(=O)c3ccccc3)cc(=O)[nH]2)cc1 | inactive | –
CCCCCCCCNc1nc(Cl)nc(NCc2ccco2)n1 | inactive | –
CCOc1ccc2nc3sc(C(=O)N4CCN(C)CC4)c(N)c3cc2c1 | inconclusive: 0.398 µM [activator, partial curve] | –
CSc1ccc(S(=O)(=O)Nc2ccc3c4c(cccc24)CC3)cc1 | inconclusive: 11.2 µM [inhibitor, partial curve] | –
Cc1cc(N2CCN(S(=O)(=O)c3ccc4c(c3)OCCO4)CC2)n2ncnc2n1 | inconclusive: 35.5 µM [inhibitor, single point] | –
CC1(C)CC(=O)C(/C=N/c2ccccn2)=C(O)C1 | active: 22.4 µM | –
CC1CCCC(C)N1C(=O)c1cc(-c2ccc(Cl)c(Cl)c2)on1 (configuration not stated) | inactive | –
CCOC(=O)/C(C#N)=C\c1cccnc1 | inactive | –
CN1CCN(c2cc(N3CCc4ccccc4C3)c(F)cc2[N+](=O)[O-])CC1 | inactive | –
Oc1c(N=NC(=S)Nc2ccccc2F)c2ccccc2n1Cc1ccccc1 | inconclusive: 7.94 µM [inhibitor, partial curve] | –
C/C(=N\Nc1ccc([N+](=O)[O-])cc1[N+](=O)[O-])C(C)(C)C(C(=O)O)C(=O)O | inconclusive: 0.562 µM [inhibitor, partial curve, poor fit] | –
CCN(CC)S(=O)(=O)c1ccc(C)c(NC(=O)COC(=O)[C@@H]2CCCN2C(=O)c2cccs2)c1 | inactive | –
COc1ccc(C2=CC(c3ccc(Cl)cc3)n3cnnc3N2)cc1OC (configuration not stated) | inconclusive: 10 µM [inhibitor, partial curve] | –
Clc1ccc(-c2csc(Nc3ccccc3)[n+]2Cc2ccco2)c(Cl)c1 | inconclusive: 11.2 µM [inhibitor, single point] | –
O=C(Cn1c(NCCCO)nc2ccccc21)c1cccc(Br)c1 | inactive | –
Cc1nc(Oc2ccccc2)c2ccccc2n1 | inconclusive: 17.8 µM [activator, single point] | –
COC(=O)Cn1c(=NC(=O)c2sc3ccccc3c2Cl)sc2cc(S(N)(=O)=O)ccc21 | inactive | –
Cc1nc(C(=O)Nc2cccc(Cl)c2)nn1-c1cc(OC(C)C)c(Cl)cc1Cl | inconclusive: 5.62 µM [inhibitor, single point] | –
CCn1c(C)cc(/C=C2/SC(=S)NC2=O)c1C | inconclusive: 35.5 µM [activator, single point] | –
Cc1ccc(-c2ccc(CCC(=O)O)n2CC(=O)O)cc1 | inactive | –
N#Cc1c(Cl)nc(N/N=C/c2ccccc2)c(Cl)c1Cl | inactive | –
CCCOc1ccccc1NC(=O)/C=C/C(N)=O | inconclusive: 22.4 µM [inhibitor, single point] | –
CCSc1nnc(NC(=O)C(C)C)s1 | inactive | –
CC1CCN(C(=O)c2ccc(S(=O)(=O)Cc3ccccc3F)c([N+](=O)[O-])c2)CC1 | inconclusive: 35.5 µM [inhibitor, single point] | –
